Record: PubChem BioAssay AID1259424 (University of Nebraska Medical Center, 2018)
This is an unselected part of about 14,000 deposited reagents. 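Higher correlation or smaller distance means closer resemblance to KSR1 loss; control wells, including KSR1 knockdowns, recur on many plates.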 Further read-outs or replicates are left out here. No sequences are given here. The record does not give: the time to read-out.

Test: 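Seek colon cancer survival genes behaving like KSR1, using a six-gene signature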 (primary screen)
Cell system: human HCT116 colon cancer cells
Reagent: siRNA pool against human genes, 50 nM
Detection: 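Log2 levels of six mRNAs (branched-DNA multiplex), adjusted by two reference genes and the non-targeting median, then scored against the average KSR1 knockdown pattern as Pearson r and euclidean distance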
Scale: mean correlation with KSR1 profile: higher = expression change more like KSR1 knockdown; mean distance from KSR1 profile: higher = expression change less like KSR1 knockdown

Silencing of MAP2K3 (GeneID 5606) came out at: mean correlation with KSR1 profile 0.0607; mean distance from KSR1 profile 3.84.
CDH13 (GeneID 1012) scored mean correlation with KSR1 profile -0.0434; mean distance from KSR1 profile 3.03.
Against CA5B (GeneID 11238), the entry reads mean correlation with KSR1 profile -0.31; mean distance from KSR1 profile 2.03.
Silencing of TM7SF2 (GeneID 7108) gave: mean correlation with KSR1 profile 0.0314; mean distance from KSR1 profile 2.26.
Silencing of GNAL (GeneID 2774) resulted in: mean correlation with KSR1 profile -0.471; mean distance from KSR1 profile 1.64.
Against THRAP3 (GeneID 9967) the deposit lists mean correlation with KSR1 profile 0.0971; mean distance from KSR1 profile 1.54.
For MICALL2 (GeneID 79778), the entry reads mean correlation with KSR1 profile 0.343; mean distance from KSR1 profile 1.95.
After knock-down of MT1A (GeneID 4489), the screen gave mean correlation with KSR1 profile 0.0926; mean distance from KSR1 profile 1.6.

A stretch of the results above, for reference:
MICALL2 (GeneID 79778) → mean correlation with KSR1 profile: 0.343; mean distance from KSR1 profile: 1.95
MT1A (GeneID 4489) → mean correlation with KSR1 profile: 0.0926; mean distance from KSR1 profile: 1.6

The listing continues.
ENTREP3 (GeneID 10712) showed mean correlation with KSR1 profile 0.504; mean distance from KSR1 profile 1.83.
After knock-down of TENM2 (GeneID 57451) the results were mean correlation with KSR1 profile 0.142; mean distance from KSR1 profile 2.81.
After knock-down of CYFIP1 (GeneID 23191) the results were mean correlation with KSR1 profile 0.116; mean distance from KSR1 profile 2.92.
Against RSPO3 (GeneID 84870), the values are mean correlation with KSR1 profile 0.585; mean distance from KSR1 profile 1.64.
